Experimental data from PMC10908107.

Protein sequences, listed by entry. Tags and fused reporters are not part of them.
UniProt P98175: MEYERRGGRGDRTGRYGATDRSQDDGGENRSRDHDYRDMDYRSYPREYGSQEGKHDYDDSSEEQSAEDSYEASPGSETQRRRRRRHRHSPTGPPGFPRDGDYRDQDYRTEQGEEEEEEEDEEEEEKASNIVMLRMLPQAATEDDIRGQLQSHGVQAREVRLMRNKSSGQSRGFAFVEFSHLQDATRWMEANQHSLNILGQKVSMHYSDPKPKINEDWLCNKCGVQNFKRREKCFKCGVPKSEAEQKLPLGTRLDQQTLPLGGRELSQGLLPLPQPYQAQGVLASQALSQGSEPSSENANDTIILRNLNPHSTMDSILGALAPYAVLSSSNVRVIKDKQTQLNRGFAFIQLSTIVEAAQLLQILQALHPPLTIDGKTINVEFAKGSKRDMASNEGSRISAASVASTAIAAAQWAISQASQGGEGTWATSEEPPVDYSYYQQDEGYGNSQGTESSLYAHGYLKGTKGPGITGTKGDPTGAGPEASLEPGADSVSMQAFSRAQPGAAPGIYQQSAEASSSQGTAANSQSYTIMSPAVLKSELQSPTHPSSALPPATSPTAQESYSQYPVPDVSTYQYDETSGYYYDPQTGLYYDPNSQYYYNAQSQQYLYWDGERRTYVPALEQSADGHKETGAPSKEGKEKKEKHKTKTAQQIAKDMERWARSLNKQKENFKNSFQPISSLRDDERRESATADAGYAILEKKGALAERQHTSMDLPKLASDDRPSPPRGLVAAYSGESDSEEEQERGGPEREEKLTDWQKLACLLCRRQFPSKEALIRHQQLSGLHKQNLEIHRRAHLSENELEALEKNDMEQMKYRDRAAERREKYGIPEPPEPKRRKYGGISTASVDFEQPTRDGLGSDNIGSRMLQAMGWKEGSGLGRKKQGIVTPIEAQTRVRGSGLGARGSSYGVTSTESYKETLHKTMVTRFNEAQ

Biological target: T1, PIN2/TERF1-interacting telomerase inhibitor (PinX1) (human (endogenous in A549)) (UniProt Q96BK5)
T1 sequence: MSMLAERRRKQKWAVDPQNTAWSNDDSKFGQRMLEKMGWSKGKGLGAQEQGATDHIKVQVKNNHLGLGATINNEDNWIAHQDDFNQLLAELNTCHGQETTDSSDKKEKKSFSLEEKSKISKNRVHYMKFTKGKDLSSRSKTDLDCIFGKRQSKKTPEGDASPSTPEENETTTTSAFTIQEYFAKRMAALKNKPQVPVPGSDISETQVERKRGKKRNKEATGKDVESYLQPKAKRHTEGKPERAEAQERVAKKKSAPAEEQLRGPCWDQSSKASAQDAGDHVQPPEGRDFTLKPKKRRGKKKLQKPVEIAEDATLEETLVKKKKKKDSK
Assay: affinity purification with mass spectrometry; A549 cells lysed in IP lysis buffer; immunoprecipitation with anti-PinX1 antibody or IgG at 4 °C overnight, Protein A/G magnetic beads, SDS-PAGE, mass spectrometry

binding: binds
Substance: RNA-binding motif protein 10 (RBM10) (from UniProt P98175 1-930)

No constants are given. Whether binding was seen depends on the method and setting. Binding seen in cells or lysates may run through a third protein. A yes stands for co-enrichment or nearness to the bait. Other partners may have been found.
